According to the supplement of paper PMC4862054:
Most entries show no effect beyond the scatter of the controls.

Tests used:
Assay in all cases: normalised response (% of control), CellTox Green; higher = less cell death (100 = DMSO, 0 = benzethonium chloride kill control)
Settings in all cases: incubation time: 72 h
MDA-MB-231 [1] = tested on: MDA-MB-231
Procedure: (§1)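 DSRT, 72 h incubation, CellTox Green / CellTiter-Glo readout. Signal is normalised to DMSO and benzethonium chloride controls. Value is the normalised response at the lowest tested concentration.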

BT-549 [2] = tested on: BT-549
Procedure: as §1

MDA-MB-436 [3] = tested on: MDA-MB-436
Procedure: as §1

MCF-10A [4] = tested on: MCF-10A
Procedure: as §1

DU-4475 [5] = tested on: DU-4475
Procedure: as §1

MDA-MB-453 [6] = tested on: MDA-MB-453
Procedure: as §1

CAL-51 [7] = tested on: CAL-51
Procedure: as §1

CAL-120 [8] = tested on: CAL-120
Procedure: as §1

MFM-223 [9] = tested on: MFM-223
Procedure: as §1

HCC1143 [10] = tested on: HCC1143
Procedure: as §1

MDA-MB-468 = tested on: MDA-MB-468
Procedure: as §1

CAL-148 [11] = tested on: CAL-148
Procedure: as §1

HDQ-P1 [12] = tested on: HDQ-P1
Procedure: as §1

Hs578T [13] = tested on: Hs578T
Procedure: as §1

HCC1599 [14] = tested on: HCC1599
Procedure: as §1

BT-474 [15] = tested on: BT-474
Procedure: as §1

CAL-85-1 [16] = tested on: CAL-85-1
Procedure: as §1

MDA-MB-231 [17] = tested on: MDA-MB-231; remark: listed apart in the source
Procedure: (§2)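 DSRT, 72 h incubation, CellTox Green / CellTiter-Glo readout. Signal is normalised to DMSO and benzethonium chloride controls. Value is the normalised response at dose 2.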

MDA-MB-436 [18] = tested on: MDA-MB-436; remark: listed apart in the source
Procedure: as §2

MCF-10A [19] = tested on: MCF-10A; remark: listed apart in the source
Procedure: as §2

HCC1937 = tested on: HCC1937
Procedure: as §2

DU-4475 [20] = tested on: DU-4475; remark: listed apart in the source
Procedure: as §2

MDA-MB-453 [21] = tested on: MDA-MB-453; remark: listed apart in the source
Procedure: as §2

CAL-51 [22] = tested on: CAL-51; remark: listed apart in the source
Procedure: as §2

CAL-120 [23] = tested on: CAL-120; remark: listed apart in the source
Procedure: as §2

MFM-223 [24] = tested on: MFM-223; remark: listed apart in the source
Procedure: as §2

CAL-148 [25] = tested on: CAL-148; remark: listed apart in the source
Procedure: as §2

HDQ-P1 [26] = tested on: HDQ-P1; remark: listed apart in the source
Procedure: as §2

HCC1599 [27] = tested on: HCC1599; remark: listed apart in the source
Procedure: as §2

BT-474 [28] = tested on: BT-474; remark: listed apart in the source
Procedure: as §2

CAL-85-1 [29] = tested on: CAL-85-1; remark: listed apart in the source
Procedure: as §2

BT-549 [30] = tested on: BT-549; remark: listed apart in the source
Procedure: as §2

HCC1143 [31] = tested on: HCC1143; remark: listed apart in the source
Procedure: as §2

Hs578T [32] = tested on: Hs578T; remark: listed apart in the source
Procedure: as §2

Compound O=C(CCBr)N1CCN(C(=O)CCBr)CC1 [Pipobroman] (1 nM) has a normalised response (MDA-MB-231 [1]) of 98.3%, a normalised response (BT-549 [2]) of 92.2% and a normalised response (MDA-MB-436 [3]) of 79.6%. The normalised response (MCF-10A [4]) was 104%, the normalised response (DU-4475 [5]) was 100% and the normalised response (MDA-MB-453 [6]) was 107%. The normalised response (CAL-51 [7]) was 105%, the normalised response (CAL-120 [8]) was 103% and the normalised response (MFM-223 [9]) was 99.6%. It also gave a normalised response (HCC1143 [10]) of 110%, a normalised response (MDA-MB-468) of 92.2% and a normalised response (CAL-148 [11]) of 104%. The normalised response (HDQ-P1 [12]) was 93%, the normalised response (Hs578T [13]) was 106% and the normalised response (HCC1599 [14]) was 94.4%. The normalised response (BT-474 [15]) was 99.3% and the normalised response (CAL-85-1 [16]) was 106%.
S=P(N1CC1)(N1CC1)N1CC1 [Thio-TEPA] (5 nM) gave a normalised response (MDA-MB-231 [1]) of 81.8%, a normalised response (BT-549 [2]) of 98.7% and a normalised response (MDA-MB-436 [3]) of 101%. It also gave a normalised response (MCF-10A [4]) of 93.8%, a normalised response (DU-4475 [5]) of 101% and a normalised response (MDA-MB-453 [6]) of 103%. For the same compound, the normalised response (CAL-51 [7]) was 98.9%, the normalised response (CAL-120 [8]) was 97.4% and the normalised response (MFM-223 [9]) was 93.5%. For the same compound, the normalised response (HCC1143 [10]) was 108%, the normalised response (MDA-MB-468) was 75.3% and the normalised response (CAL-148 [11]) was 104%. The normalised response (HDQ-P1 [12]) was 96.9%, the normalised response (Hs578T [13]) was 100% and the normalised response (HCC1599 [14]) was 97%. The normalised response (BT-474 [15]) was 101% and the normalised response (CAL-85-1 [16]) was 103%.
Cn1cc(C2=C(c3cn(C4CCN(Cc5ccccn5)CC4)c4ccccc34)C(=O)NC2=O)c2ccccc21 [Enzastaurin] (1 nM) showed a normalised response (MDA-MB-231 [1]) of 98.6%, a normalised response (BT-549 [2]) of 97.5% and a normalised response (MDA-MB-436 [3]) of 88.4%. It also gave a normalised response (MCF-10A [4]) of 98.2%, a normalised response (DU-4475 [5]) of 99.9% and a normalised response (MDA-MB-453 [6]) of 111%. It also gave a normalised response (CAL-51 [7]) of 92%, a normalised response (CAL-120 [8]) of 96.4% and a normalised response (MFM-223 [9]) of 97.5%. The normalised response (HCC1143 [10]) was 110%, the normalised response (MDA-MB-468) was 116% and the normalised response (CAL-148 [11]) was 104%. It also gave a normalised response (HDQ-P1 [12]) of 98.4%, a normalised response (Hs578T [13]) of 102% and a normalised response (HCC1599 [14]) of 101%. For the same compound, the normalised response (BT-474 [15]) was 95.9% and the normalised response (CAL-85-1 [16]) was 108%.
Compound CC(C)(C)Cn1c(N)nc2ccc(-c3[nH]c(C(C)(C)C)nc3-c3ccc(F)cc3)nc21 (10 nM) has a normalised response (MDA-MB-231 [17]) of 111%, a normalised response (MDA-MB-436 [18]) of 90.8% and a normalised response (MCF-10A [19]) of 82.6%. It also gave a normalised response (HCC1937) of 102%, a normalised response (DU-4475 [20]) of 100% and a normalised response (MDA-MB-453 [21]) of 93.1%. The normalised response (CAL-51 [22]) was 101%, the normalised response (CAL-120 [23]) was 99.8% and the normalised response (MFM-223 [24]) was 96%. For the same compound, the normalised response (CAL-148 [25]) was 106%, the normalised response (HDQ-P1 [26]) was 117% and the normalised response (HCC1599 [27]) was 101%. For the same compound, the normalised response (BT-474 [28]) was 103% and the normalised response (CAL-85-1 [29]) was 98.3%.
In the case of CN(Cc1cnc2nc(N)nc(N)c2n1)c1ccc(C(=O)N[C@@H](CCC(=O)O)C(=O)O)cc1 [Methotrexate] (5 nM), the normalised response (MDA-MB-231 [1]) is reported as 95.9%, the normalised response (BT-549 [2]) is reported as 88.5% and the normalised response (MDA-MB-436 [3]) is reported as 108%. The normalised response (MCF-10A [4]) was 67.7%, the normalised response (DU-4475 [5]) was 107% and the normalised response (MDA-MB-453 [6]) was 101%. For the same compound, the normalised response (CAL-51 [7]) was 124%, the normalised response (CAL-120 [8]) was 96.1% and the normalised response (MFM-223 [9]) was 103%. It also gave a normalised response (HCC1143 [10]) of 100%, a normalised response (MDA-MB-468) of 59.1% and a normalised response (CAL-148 [11]) of 99.9%. It also gave a normalised response (HDQ-P1 [12]) of 106%, a normalised response (Hs578T [13]) of 112% and a normalised response (HCC1599 [14]) of 115%. For the same compound, the normalised response (BT-474 [15]) was 102% and the normalised response (CAL-85-1 [16]) was 109%.
For O=C(/C=C/c1cccnc1)NCCCCC1CCN(C(=O)c2ccccc2)CC1 [Daporinad] (0.1 nM), the normalised response (MDA-MB-231 [1]) was 101%, the normalised response (BT-549 [2]) was 91.1% and the normalised response (MDA-MB-436 [3]) was 86.8%. It also gave a normalised response (MCF-10A [4]) of 91%, a normalised response (DU-4475 [5]) of 101% and a normalised response (MDA-MB-453 [6]) of 95%. It also gave a normalised response (CAL-51 [7]) of 116%, a normalised response (CAL-120 [8]) of 100% and a normalised response (MFM-223 [9]) of 102%. For the same compound, the normalised response (HCC1143 [10]) was 117%, the normalised response (MDA-MB-468) was 121% and the normalised response (CAL-148 [11]) was 105%. For the same compound, the normalised response (HDQ-P1 [12]) was 95.5%, the normalised response (HCC1599 [14]) was 88.6% and the normalised response (BT-474 [15]) was 100%. For the same compound, the normalised response (CAL-85-1 [16]) was 104%.
For CC(=O)Nc1cccc(-n2c(=O)n(C3CC3)c(=O)c3c(Nc4ccc(I)cc4F)n(C)c(=O)c(C)c32)c1 [Trametinib] (0.025 nM), the normalised response (MDA-MB-231 [1]) was 106%, the normalised response (MDA-MB-436 [3]) was 83.1% and the normalised response (DU-4475 [5]) was 100%. For the same compound, the normalised response (MDA-MB-453 [6]) was 109%, the normalised response (CAL-51 [7]) was 126% and the normalised response (CAL-120 [8]) was 94.5%. For the same compound, the normalised response (MFM-223 [9]) was 101%, the normalised response (HCC1143 [10]) was 120% and the normalised response (MDA-MB-468) was 81%. The normalised response (CAL-148 [11]) was 108%, the normalised response (Hs578T [13]) was 104% and the normalised response (HCC1599 [14]) was 99.1%. The normalised response (BT-474 [15]) was 103% and the normalised response (CAL-85-1 [16]) was 106%.
With CC(C)N(CCCNC(=O)Nc1ccc(C(C)(C)C)cc1)C[C@H]1O[C@@H](n2cc(Br)c3c(N)ncnc32)[C@H](O)[C@@H]1O [SGC0946] (1 nM) the normalised response (MDA-MB-231 [1]) was 98.6%, the normalised response (BT-549 [2]) was 99.3% and the normalised response (MDA-MB-436 [3]) was 80.5%. It also gave a normalised response (MCF-10A [4]) of 95.9%, a normalised response (DU-4475 [5]) of 97.3% and a normalised response (MDA-MB-453 [6]) of 84.3%. For the same compound, the normalised response (CAL-51 [7]) was 75.2%, the normalised response (CAL-120 [8]) was 101% and the normalised response (MFM-223 [9]) was 105%. The normalised response (HCC1143 [10]) was 113%, the normalised response (MDA-MB-468) was 88.2% and the normalised response (CAL-148 [11]) was 96.2%. It also gave a normalised response (HDQ-P1 [12]) of 101%, a normalised response (HCC1599 [14]) of 102% and a normalised response (BT-474 [15]) of 96.9%. The normalised response (CAL-85-1 [16]) was 97.5%.
